# Measured values published in the supplement of paper PMC10849652.
# Protein sequences, listed by entry. Tags and fused reporters are not part of them. Lines headed by an entry give the natural chain unless they say otherwise; changes in a name come on top.
# UniProt Q9HCE1: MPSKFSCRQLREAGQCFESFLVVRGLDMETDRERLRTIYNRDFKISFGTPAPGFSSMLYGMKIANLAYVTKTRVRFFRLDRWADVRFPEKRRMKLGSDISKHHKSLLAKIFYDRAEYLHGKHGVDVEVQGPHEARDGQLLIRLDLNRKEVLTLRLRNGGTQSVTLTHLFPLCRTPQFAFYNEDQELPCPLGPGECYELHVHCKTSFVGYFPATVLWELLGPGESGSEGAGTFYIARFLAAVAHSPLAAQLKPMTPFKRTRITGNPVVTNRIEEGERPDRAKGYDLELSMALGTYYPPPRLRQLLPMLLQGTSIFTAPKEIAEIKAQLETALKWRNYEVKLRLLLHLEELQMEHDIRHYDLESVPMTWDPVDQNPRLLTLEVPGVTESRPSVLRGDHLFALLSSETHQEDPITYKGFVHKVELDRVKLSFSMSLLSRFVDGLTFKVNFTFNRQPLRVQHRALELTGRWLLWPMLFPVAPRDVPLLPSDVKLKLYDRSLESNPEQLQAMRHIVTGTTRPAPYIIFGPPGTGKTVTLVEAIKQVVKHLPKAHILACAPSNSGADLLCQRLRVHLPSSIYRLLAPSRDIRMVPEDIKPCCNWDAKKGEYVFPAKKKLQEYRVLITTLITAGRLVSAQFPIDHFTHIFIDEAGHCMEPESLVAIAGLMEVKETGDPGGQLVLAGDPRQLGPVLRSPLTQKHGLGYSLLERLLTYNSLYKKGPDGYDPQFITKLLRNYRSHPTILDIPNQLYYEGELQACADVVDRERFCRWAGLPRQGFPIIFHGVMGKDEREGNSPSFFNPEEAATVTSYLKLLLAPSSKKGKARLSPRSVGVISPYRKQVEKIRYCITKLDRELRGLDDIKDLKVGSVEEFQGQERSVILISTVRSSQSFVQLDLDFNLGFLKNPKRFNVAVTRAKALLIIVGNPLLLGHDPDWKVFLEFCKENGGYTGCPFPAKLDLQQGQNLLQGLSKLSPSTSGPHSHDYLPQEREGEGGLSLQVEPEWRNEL
# UniProt Q9H081: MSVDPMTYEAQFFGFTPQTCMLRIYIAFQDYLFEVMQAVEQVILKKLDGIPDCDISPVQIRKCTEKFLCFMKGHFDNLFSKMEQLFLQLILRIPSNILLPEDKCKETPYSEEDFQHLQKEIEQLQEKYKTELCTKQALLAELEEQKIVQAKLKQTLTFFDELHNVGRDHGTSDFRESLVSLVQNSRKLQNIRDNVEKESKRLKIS
# UniProt Q13015: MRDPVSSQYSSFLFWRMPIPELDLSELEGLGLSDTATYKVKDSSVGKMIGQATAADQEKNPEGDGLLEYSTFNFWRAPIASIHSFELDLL
# UniProt Q8N3F8: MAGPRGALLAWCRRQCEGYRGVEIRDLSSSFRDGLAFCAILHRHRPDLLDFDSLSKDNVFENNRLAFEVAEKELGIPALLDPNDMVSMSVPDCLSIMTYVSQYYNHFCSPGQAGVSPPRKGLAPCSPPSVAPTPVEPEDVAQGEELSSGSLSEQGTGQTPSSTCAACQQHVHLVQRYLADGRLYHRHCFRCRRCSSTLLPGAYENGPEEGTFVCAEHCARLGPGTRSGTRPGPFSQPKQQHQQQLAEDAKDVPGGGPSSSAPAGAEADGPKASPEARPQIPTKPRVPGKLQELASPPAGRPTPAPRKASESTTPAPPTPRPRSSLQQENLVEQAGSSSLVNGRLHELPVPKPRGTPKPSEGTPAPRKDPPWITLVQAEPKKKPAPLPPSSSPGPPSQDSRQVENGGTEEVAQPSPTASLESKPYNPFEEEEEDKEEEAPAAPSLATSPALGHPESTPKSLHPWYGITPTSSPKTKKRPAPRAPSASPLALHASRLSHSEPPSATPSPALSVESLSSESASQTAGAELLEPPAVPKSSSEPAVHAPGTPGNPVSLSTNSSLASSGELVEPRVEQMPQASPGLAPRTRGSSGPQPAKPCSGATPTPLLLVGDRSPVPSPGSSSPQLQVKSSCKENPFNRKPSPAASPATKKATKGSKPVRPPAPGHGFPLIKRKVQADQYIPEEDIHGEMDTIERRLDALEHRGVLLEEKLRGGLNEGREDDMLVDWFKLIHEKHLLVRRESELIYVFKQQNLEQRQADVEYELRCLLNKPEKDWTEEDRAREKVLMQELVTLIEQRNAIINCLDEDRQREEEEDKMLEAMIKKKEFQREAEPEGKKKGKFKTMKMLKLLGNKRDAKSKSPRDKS
# UniProt Q567V2: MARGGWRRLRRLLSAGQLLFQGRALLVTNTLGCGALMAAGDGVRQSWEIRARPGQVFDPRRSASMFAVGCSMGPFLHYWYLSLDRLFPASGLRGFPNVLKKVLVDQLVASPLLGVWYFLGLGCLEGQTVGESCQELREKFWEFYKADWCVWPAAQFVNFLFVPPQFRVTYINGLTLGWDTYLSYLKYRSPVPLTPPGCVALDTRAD
# UniProt Q00013: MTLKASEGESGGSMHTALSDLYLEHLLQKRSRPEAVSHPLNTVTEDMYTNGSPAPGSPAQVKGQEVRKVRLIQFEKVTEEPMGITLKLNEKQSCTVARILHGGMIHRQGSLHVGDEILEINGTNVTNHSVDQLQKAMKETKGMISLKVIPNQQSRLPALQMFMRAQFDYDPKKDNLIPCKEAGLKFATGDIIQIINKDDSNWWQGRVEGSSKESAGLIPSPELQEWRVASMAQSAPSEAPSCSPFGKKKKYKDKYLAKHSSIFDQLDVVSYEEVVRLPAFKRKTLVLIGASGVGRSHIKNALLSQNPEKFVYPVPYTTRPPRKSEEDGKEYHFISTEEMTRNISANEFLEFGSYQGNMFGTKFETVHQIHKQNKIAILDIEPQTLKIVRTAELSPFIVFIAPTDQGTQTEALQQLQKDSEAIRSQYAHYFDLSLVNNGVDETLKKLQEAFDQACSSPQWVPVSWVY
# UniProt Q9BPX6: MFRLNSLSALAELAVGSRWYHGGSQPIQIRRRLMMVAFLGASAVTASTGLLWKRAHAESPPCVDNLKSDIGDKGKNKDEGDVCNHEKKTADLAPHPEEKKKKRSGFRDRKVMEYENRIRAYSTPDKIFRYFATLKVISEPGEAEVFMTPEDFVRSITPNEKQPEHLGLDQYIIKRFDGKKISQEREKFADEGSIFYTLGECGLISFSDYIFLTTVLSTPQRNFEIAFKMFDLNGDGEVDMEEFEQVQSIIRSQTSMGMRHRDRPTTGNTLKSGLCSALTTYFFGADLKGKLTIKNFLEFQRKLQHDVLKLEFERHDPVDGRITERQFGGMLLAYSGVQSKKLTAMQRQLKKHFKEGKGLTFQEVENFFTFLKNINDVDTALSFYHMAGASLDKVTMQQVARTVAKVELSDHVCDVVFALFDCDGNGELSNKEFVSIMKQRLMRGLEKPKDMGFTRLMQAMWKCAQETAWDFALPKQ
# UniProt Q9NYP9: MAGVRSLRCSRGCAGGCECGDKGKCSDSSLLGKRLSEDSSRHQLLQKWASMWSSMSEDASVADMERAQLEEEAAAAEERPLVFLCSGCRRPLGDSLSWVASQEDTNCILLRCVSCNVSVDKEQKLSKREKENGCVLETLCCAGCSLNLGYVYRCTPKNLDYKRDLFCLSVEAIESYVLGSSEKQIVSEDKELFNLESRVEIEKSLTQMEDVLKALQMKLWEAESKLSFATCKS
# UniProt Q9NXC5: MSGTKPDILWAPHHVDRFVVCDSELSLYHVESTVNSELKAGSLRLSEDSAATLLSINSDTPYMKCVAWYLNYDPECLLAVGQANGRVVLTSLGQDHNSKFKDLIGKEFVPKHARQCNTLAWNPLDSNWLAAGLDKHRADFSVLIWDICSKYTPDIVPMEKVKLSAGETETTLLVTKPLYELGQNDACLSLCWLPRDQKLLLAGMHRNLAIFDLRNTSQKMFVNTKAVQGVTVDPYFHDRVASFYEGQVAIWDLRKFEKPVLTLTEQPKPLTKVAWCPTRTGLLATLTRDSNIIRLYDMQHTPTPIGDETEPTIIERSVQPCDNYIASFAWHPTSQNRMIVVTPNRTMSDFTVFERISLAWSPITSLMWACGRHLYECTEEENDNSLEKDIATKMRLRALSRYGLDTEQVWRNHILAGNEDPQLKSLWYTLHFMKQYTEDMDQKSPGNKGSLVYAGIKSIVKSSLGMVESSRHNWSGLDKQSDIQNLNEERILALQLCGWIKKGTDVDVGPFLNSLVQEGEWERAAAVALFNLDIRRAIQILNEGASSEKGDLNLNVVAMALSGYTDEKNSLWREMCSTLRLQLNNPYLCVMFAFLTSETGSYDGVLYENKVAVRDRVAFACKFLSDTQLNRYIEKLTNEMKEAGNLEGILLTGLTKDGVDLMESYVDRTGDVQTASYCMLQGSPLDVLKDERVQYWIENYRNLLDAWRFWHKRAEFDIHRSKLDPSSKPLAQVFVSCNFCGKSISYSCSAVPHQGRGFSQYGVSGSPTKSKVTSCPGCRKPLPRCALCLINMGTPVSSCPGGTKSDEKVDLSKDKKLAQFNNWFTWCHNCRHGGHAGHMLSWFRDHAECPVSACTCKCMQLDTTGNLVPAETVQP
# UniProt Q14165: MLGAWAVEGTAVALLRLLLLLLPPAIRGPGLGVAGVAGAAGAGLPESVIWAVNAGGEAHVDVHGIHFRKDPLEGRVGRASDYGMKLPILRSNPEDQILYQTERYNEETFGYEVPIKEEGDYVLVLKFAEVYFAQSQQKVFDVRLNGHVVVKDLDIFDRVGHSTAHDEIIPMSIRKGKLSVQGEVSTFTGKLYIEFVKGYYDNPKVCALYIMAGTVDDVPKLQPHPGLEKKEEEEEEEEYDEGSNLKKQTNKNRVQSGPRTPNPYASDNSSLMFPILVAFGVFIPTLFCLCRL
# UniProt P14174: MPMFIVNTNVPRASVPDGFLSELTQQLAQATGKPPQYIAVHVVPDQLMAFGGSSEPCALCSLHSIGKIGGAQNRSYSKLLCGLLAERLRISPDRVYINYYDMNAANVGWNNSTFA
# UniProt P40692: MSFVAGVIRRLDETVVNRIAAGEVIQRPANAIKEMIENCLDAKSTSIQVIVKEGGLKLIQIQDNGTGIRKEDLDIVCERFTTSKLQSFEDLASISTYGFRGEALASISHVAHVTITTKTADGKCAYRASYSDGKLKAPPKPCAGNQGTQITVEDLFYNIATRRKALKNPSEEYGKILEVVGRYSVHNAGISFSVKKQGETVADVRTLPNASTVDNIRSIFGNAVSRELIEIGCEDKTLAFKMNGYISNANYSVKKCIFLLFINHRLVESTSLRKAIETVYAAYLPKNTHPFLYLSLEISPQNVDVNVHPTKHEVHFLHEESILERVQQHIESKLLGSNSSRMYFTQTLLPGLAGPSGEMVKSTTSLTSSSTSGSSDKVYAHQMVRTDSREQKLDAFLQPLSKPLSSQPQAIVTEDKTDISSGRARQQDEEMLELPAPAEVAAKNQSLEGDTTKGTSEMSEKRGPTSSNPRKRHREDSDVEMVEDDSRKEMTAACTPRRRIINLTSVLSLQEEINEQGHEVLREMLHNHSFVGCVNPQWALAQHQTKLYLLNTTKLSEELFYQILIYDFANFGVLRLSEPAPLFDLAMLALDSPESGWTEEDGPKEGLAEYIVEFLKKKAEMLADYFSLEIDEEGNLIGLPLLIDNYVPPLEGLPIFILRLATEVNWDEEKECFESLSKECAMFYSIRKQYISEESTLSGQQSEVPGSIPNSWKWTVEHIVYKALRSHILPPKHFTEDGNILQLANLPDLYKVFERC
# UniProt Q9BU76: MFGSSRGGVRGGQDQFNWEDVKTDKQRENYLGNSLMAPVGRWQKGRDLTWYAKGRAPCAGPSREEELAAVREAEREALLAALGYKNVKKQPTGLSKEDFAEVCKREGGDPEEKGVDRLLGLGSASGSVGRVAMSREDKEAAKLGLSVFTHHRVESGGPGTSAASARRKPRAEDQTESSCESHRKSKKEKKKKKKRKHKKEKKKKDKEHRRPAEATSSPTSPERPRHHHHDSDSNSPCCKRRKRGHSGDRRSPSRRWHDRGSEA
# UniProt P34949: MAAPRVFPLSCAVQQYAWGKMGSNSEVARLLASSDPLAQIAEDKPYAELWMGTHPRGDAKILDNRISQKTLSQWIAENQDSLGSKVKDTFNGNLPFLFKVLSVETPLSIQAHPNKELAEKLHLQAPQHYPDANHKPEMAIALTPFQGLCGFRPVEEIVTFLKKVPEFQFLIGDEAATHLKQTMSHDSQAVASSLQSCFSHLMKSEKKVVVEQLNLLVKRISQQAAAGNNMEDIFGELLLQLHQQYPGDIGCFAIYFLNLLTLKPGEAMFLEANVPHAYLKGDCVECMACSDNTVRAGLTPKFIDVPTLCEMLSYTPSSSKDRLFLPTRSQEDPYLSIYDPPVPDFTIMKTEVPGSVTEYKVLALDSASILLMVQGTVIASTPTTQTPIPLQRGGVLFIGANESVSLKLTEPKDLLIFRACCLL
# UniProt Q9BWT6: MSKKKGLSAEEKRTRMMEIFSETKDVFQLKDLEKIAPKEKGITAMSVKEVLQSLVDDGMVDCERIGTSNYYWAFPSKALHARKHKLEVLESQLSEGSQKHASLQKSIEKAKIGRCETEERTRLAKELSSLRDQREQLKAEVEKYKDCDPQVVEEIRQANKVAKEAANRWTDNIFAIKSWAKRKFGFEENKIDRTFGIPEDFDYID
# UniProt Q5TGZ0: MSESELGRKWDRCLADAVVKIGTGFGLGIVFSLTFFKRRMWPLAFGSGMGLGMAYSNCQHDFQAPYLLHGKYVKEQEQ
# Some of the results follow.
# Key:
# Experiment in all cases: log2 fold change, soluble protein after heating vs DMSO (PISA); higher = thermal stabilisation; K562 lysate, 10 uM; active = over 0.2 and 3.5 SD of the protein, either way, in both replicates (recomputed)
# vemurafenib = compound: CCCS(=O)(=O)Nc1ccc(F)c(C(=O)c2c[nH]c3ncc(-c4ccc(Cl)cc4)cc23)c1F [vemurafenib]
# In short: (§1)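 Quantification was by TMTpro 16plex LC-MS/MS with equalised channel sums, applied to the supernatant after 21,000xg for 90 min. Samples were crude K562 extract at 1 mg/mL protein in PBS pH 7.4 with 1 mM MgCl2, treated with 10 μM compound for 30 min, heated for 3 min across 48°C-58°C, pooled and brought to 0.5% NP-40 at 4°C. Values are log-two fold changes in thermal stability relative to solvent controls, from duplicates.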
# [1] = compound: CCCS(=O)(=O)Nc1ccc(F)c(C(=O)c2c[nH]c3ncc(Cl)cc23)c1F
# In short: as §1
# barasertib = compound: CCN(CCCOc1ccc2c(Nc3cc(CC(=O)Nc4cccc(F)c4)[nH]n3)ncnc2c1)CCOP(=O)(O)O [barasertib]
# In short: as §1
# [2] = compound: CC[C@@H]1C(=O)N(C)c2cnc(Nc3ccc(C(=O)NC4CCN(C)CC4)cc3OC)nc2N1C1CCCC1
# In short: as §1
# volasertib = compound: CC[C@@H]1C(=O)N(C)c2cnc(Nc3ccc(C(=O)N[C@H]4CC[C@H](N5CCN(CC6CC6)CC5)CC4)cc3OC)nc2N1C(C)C [volasertib]
# In short: as §1
# [3] = compound: CCn1c(C(=O)N(C2CC2)C2CC2)cc2c3c(ncn3C)c(Nc3cc(C)n(C)n3)nc21
# In short: as §1
# [4] = compound: CCn1cc(-c2ccnc3[nH]c(-c4cccc(CN(C)C)c4)cc23)c(-c2ccc(NC(=O)N(C)C)cc2)n1
# In short: as §1
# [5] = compound: CN1CCC(CNc2ccc3ncc(-c4cccc(OC(F)(F)F)c4)n3n2)CC1
# In short: as §1
# saracatinib = compound: CN1CCN(CCOc2cc(OC3CCOCC3)c3c(Nc4c(Cl)ccc5c4OCO5)ncnc3c2)CC1 [saracatinib]
# In short: as §1
# sotrastaurin = compound: CN1CCN(c2nc(C3=C(c4c[nH]c5ccccc45)C(=O)NC3=O)c3ccccc3n2)CC1 [sotrastaurin]
# In short: as §1
Target,log2 fold change (vemurafenib),log2 fold change [1],log2 fold change (barasertib),log2 fold change [2],log2 fold change (volasertib),log2 fold change [3],log2 fold change [4],log2 fold change [5],log2 fold change (saracatinib),log2 fold change (sotrastaurin)
MINPP1 (UniProt Q9UNW1),inactive: -0.009,inactive: -0.009,inactive: -0.017,inactive: 0.018,inactive: 0.022,inactive: 0.027,inactive: -0.028,inactive: 0.023,inactive: -0.016,inactive: 0.039
MOV10 (UniProt Q9HCE1),inactive: 0.003,inactive: 0.01,inactive: -0.005,inactive: -0.004,inactive: -0.003,inactive: 0.039,inactive: -0.034,inactive: 0.011,inactive: 0.007,inactive: 0.023
MIER1 isoform 12 (UniProt Q8N108),inactive: 0.057,inactive: 0.013,inactive: -0.032,inactive: 0.027,inactive: 0.004,inactive: -0.027,inactive: -0.045,inactive: 0.019,inactive: -0.003,inactive: 0.042
MRPL19 (UniProt P49406),inactive: 0.026,inactive: 0.029,inactive: 0.001,inactive: -0.139,inactive: -0.056,inactive: 0,inactive: 0.026,inactive: -0.053,inactive: 0.016,inactive: -0.016
MIS12 (UniProt Q9H081),inactive: 0.015,inactive: 0.03,inactive: 0.144,inactive: 0.003,inactive: 0.01,inactive: -0.013,inactive: -0.042,inactive: 0.011,inactive: -0.036,inactive: -0.051
MLLT11 (UniProt Q13015),inactive: -0.054,inactive: -0.048,inactive: 0.143,inactive: -0.199,inactive: 0.1,inactive: 0.05,inactive: -0.01,inactive: -0.049,inactive: 0.118,inactive: -0.04
MKNK1 (UniProt Q9BUB5),inactive: 0.044,inactive: 0.006,inactive: -0.018,inactive: 0.036,inactive: -0.039,inactive: -0.044,inactive: -0.018,inactive: 0.039,inactive: 0.023,inactive: -0.044
MICALL1 (UniProt Q8N3F8),inactive: 0.003,inactive: 0.041,inactive: 0.007,inactive: -0.004,inactive: -0.006,inactive: 0.007,inactive: 0.026,inactive: 0.022,inactive: 0.021,inactive: 0.003
MOB3A (UniProt Q96BX8),inactive: 0.097,inactive: 0.043,inactive: -0.01,inactive: 0.026,inactive: 0.013,inactive: 0.02,inactive: -0.139,inactive: -0.072,inactive: -0.044,inactive: 0
MPV17L2 (UniProt Q567V2),inactive: 0.013,inactive: -0.027,inactive: 0.016,inactive: 0.045,inactive: 0.103,inactive: 0.154,inactive: -0.068,inactive: 0.019,inactive: -0.011,inactive: 0.1
MRPL13 (UniProt Q9BYD1),inactive: 0.014,inactive: -0.04,inactive: -0.038,inactive: -0.017,inactive: -0.025,inactive: 0.028,inactive: -0.072,inactive: 0.025,inactive: 0.011,inactive: -0.011
MPP1 (UniProt Q00013),inactive: 0.014,inactive: -0.005,inactive: -0.014,inactive: 0.001,inactive: -0.029,inactive: -0.011,inactive: -0.008,inactive: -0.034,inactive: -0.001,inactive: -0.007
MPC2 (UniProt O95563),inactive: 0.023,inactive: -0.001,inactive: -0.003,inactive: 0.067,inactive: 0.005,inactive: -0.025,inactive: -0.084,inactive: 0.076,inactive: -0.005,inactive: 0.003
MORF4L2 (UniProt Q15014),inactive: -0.021,inactive: 0.018,inactive: -0.043,inactive: 0.067,inactive: 0.001,inactive: 0.015,inactive: -0.012,inactive: 0.045,inactive: 0.004,inactive: -0.007
MICU1 isoform 3 (UniProt Q9BPX6),inactive: -0.055,inactive: -0.004,inactive: 0.094,inactive: 0.002,inactive: -0.005,inactive: 0.091,active: 0.234,active: -0.422,inactive: 0.006,inactive: 0.044
MIS18A (UniProt Q9NYP9),inactive: -0.035,inactive: 0.006,inactive: -0.021,inactive: -0.017,inactive: 0.007,inactive: 0.021,inactive: 0.223,inactive: -0.14,inactive: -0.025,inactive: 0.033
MORC2 (UniProt Q9Y6X9),inactive: 0.049,inactive: 0.01,inactive: 0.054,inactive: 0.022,inactive: 0.002,inactive: -0.006,inactive: -0.041,inactive: 0.008,inactive: 0.042,inactive: 0.037
MIOS (UniProt Q9NXC5),inactive: 0.039,inactive: -0.002,inactive: 0.013,inactive: -0.037,inactive: -0.017,inactive: 0.008,inactive: -0.015,inactive: 0.036,inactive: 0.001,inactive: -0.002
MINK1 (UniProt Q8N4C8),inactive: -0.096,inactive: -0.107,inactive: -0.017,inactive: -0.012,inactive: 0.022,inactive: 0.076,inactive: -0.033,inactive: -0.09,inactive: 0.007,inactive: 0.079
MLEC (UniProt Q14165),inactive: -0.008,inactive: 0.007,inactive: 0.013,inactive: -0.006,inactive: 0.027,inactive: -0.023,inactive: 0.073,inactive: -0.022,inactive: -0.018,inactive: -0.032
MRPL17 (UniProt Q9NRX2),inactive: 0.036,inactive: 0.055,inactive: 0.054,inactive: -0.023,inactive: -0.066,inactive: 0.045,inactive: 0.041,inactive: -0.005,inactive: -0.002,inactive: 0.031
MIF (UniProt P14174),inactive: 0.025,inactive: -0.047,inactive: -0.02,inactive: 0,inactive: -0.025,inactive: 0.021,inactive: -0.274,inactive: 0.084,inactive: 0.002,inactive: 0.002
MLH1 (UniProt P40692),inactive: 0.042,inactive: -0.039,inactive: 0.014,inactive: 0.013,inactive: -0.002,inactive: 0.014,inactive: -0.029,inactive: -0.023,inactive: 0.051,inactive: 0.02
MRPL11 (UniProt Q9Y3B7),inactive: 0.038,inactive: 0.012,inactive: 0.075,inactive: 0,inactive: -0.024,inactive: 0.036,inactive: 0.01,inactive: -0.06,inactive: 0.012,inactive: -0.015
MMTAG2 (UniProt Q9BU76),inactive: 0.028,inactive: -0.004,inactive: 0.019,inactive: 0.061,inactive: -0.011,inactive: -0.02,inactive: 0.044,inactive: 0.011,inactive: -0.026,inactive: -0.041
MPI (UniProt P34949),inactive: 0.013,inactive: 0.007,inactive: 0.008,inactive: 0.014,inactive: -0.02,inactive: -0.011,inactive: 0.149,inactive: -0.067,inactive: -0.028,inactive: 0.025
MNAT1 (UniProt P51948),inactive: 0.038,inactive: 0.011,inactive: -0.104,inactive: 0.021,inactive: 0.02,inactive: -0.018,inactive: -0.084,inactive: 0.09,inactive: 0.04,inactive: 0.054
MND1 (UniProt Q9BWT6),inactive: -0.023,inactive: 0.016,inactive: -0.02,inactive: -0.018,inactive: 0.026,inactive: -0.013,inactive: 0.131,inactive: -0.13,inactive: 0.002,inactive: 0.024
MICOS10 (UniProt Q5TGZ0),inactive: -0.165,inactive: -0.089,inactive: 0.118,inactive: -0.091,inactive: 0.111,inactive: 0.02,inactive: -0.009,inactive: 0.031,inactive: 0.027,inactive: -0.029
MON1A (UniProt Q86VX9),inactive: 0.022,inactive: 0.029,inactive: 0.008,inactive: 0.013,inactive: -0.072,inactive: 0.007,inactive: -0.234,inactive: 0.119,inactive: 0.012,inactive: -0.036

# Exported bar-delimited: part of the list above
Target | log2 fold change (vemurafenib) | log2 fold change [1] | log2 fold change (barasertib) | log2 fold change [2] | log2 fold change (volasertib) | log2 fold change [3] | log2 fold change [4] | log2 fold change [5] | log2 fold change (saracatinib) | log2 fold change (sotrastaurin)
MIER1 isoform 12 (UniProt Q8N108) | inactive: 0.057 | inactive: 0.013 | inactive: -0.032 | inactive: 0.027 | inactive: 0.004 | inactive: -0.027 | inactive: -0.045 | inactive: 0.019 | inactive: -0.003 | inactive: 0.042
MIS12 (UniProt Q9H081) | inactive: 0.015 | inactive: 0.03 | inactive: 0.144 | inactive: 0.003 | inactive: 0.01 | inactive: -0.013 | inactive: -0.042 | inactive: 0.011 | inactive: -0.036 | inactive: -0.051
MICALL1 (UniProt Q8N3F8) | inactive: 0.003 | inactive: 0.041 | inactive: 0.007 | inactive: -0.004 | inactive: -0.006 | inactive: 0.007 | inactive: 0.026 | inactive: 0.022 | inactive: 0.021 | inactive: 0.003
MOB3A (UniProt Q96BX8) | inactive: 0.097 | inactive: 0.043 | inactive: -0.01 | inactive: 0.026 | inactive: 0.013 | inactive: 0.02 | inactive: -0.139 | inactive: -0.072 | inactive: -0.044 | inactive: 0
MPV17L2 (UniProt Q567V2) | inactive: 0.013 | inactive: -0.027 | inactive: 0.016 | inactive: 0.045 | inactive: 0.103 | inactive: 0.154 | inactive: -0.068 | inactive: 0.019 | inactive: -0.011 | inactive: 0.1
MRPL13 (UniProt Q9BYD1) | inactive: 0.014 | inactive: -0.04 | inactive: -0.038 | inactive: -0.017 | inactive: -0.025 | inactive: 0.028 | inactive: -0.072 | inactive: 0.025 | inactive: 0.011 | inactive: -0.011
MPP1 (UniProt Q00013) | inactive: 0.014 | inactive: -0.005 | inactive: -0.014 | inactive: 0.001 | inactive: -0.029 | inactive: -0.011 | inactive: -0.008 | inactive: -0.034 | inactive: -0.001 | inactive: -0.007
MIF (UniProt P14174) | inactive: 0.025 | inactive: -0.047 | inactive: -0.02 | inactive: 0 | inactive: -0.025 | inactive: 0.021 | inactive: -0.274 | inactive: 0.084 | inactive: 0.002 | inactive: 0.002
MND1 (UniProt Q9BWT6) | inactive: -0.023 | inactive: 0.016 | inactive: -0.02 | inactive: -0.018 | inactive: 0.026 | inactive: -0.013 | inactive: 0.131 | inactive: -0.13 | inactive: 0.002 | inactive: 0.024
